From the supplement of paper PMC10849652
This is one part of the list. Residues, ends and D or L forms follow the SMILES beside them. *: point of attachment. Cbz = O=C(OCc1ccccc1)*

The chains behind the UniProt entries cited, without tags or fusion partners. Where a name states a change or a piece, a line headed by the entry shows the natural chain unless it says otherwise.
UniProt O15305: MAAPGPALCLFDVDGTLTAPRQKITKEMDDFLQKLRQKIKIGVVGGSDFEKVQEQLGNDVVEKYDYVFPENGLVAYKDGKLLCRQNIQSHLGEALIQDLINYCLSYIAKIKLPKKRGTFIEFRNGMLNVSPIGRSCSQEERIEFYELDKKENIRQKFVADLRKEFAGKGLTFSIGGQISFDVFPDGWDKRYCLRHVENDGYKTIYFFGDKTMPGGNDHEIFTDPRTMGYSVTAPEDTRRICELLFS
UniProt P00747, whole entry, looked up: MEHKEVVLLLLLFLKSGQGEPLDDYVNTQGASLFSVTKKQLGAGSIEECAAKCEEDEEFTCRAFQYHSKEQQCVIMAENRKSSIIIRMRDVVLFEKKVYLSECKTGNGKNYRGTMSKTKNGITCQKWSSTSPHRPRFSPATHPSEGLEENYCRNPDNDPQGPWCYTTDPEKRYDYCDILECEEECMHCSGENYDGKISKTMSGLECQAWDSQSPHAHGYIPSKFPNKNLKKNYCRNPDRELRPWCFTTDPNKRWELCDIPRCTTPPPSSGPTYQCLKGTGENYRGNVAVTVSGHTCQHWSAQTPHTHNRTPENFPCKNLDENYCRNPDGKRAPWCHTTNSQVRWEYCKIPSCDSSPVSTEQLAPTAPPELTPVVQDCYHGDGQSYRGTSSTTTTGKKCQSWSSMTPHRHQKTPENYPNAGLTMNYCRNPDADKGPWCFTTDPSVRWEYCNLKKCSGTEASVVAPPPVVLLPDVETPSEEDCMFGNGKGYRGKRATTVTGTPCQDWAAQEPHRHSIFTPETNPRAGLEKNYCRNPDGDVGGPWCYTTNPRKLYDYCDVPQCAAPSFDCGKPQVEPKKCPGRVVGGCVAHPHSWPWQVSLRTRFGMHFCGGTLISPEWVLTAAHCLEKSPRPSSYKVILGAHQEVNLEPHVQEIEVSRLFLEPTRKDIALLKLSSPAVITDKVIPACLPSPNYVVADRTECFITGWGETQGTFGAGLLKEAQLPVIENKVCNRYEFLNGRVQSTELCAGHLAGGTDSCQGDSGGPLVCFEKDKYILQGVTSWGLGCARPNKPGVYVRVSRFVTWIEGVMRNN
UniProt Q9HBL7: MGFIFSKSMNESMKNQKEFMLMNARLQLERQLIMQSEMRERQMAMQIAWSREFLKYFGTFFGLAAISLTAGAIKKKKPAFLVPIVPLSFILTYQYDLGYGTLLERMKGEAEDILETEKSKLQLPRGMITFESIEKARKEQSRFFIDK
UniProt Q9NUX5: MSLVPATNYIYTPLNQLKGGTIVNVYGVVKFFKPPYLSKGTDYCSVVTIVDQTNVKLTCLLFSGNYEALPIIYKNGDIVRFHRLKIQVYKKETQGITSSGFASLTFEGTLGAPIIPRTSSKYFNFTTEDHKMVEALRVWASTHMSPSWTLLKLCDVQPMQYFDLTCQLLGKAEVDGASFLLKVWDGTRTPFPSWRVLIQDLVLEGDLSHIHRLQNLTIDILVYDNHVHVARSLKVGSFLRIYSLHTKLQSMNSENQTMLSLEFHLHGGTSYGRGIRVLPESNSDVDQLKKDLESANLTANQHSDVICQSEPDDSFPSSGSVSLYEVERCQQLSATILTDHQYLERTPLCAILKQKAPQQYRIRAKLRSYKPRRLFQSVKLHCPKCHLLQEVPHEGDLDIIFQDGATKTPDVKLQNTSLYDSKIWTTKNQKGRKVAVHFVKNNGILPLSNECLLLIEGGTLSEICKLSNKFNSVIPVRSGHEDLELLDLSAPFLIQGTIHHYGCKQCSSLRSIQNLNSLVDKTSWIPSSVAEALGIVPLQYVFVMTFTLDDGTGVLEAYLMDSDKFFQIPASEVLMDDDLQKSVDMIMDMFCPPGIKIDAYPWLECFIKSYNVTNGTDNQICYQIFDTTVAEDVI
UniProt Q13794: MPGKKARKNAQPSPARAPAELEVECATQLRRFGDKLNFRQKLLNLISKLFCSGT
UniProt Q9H307: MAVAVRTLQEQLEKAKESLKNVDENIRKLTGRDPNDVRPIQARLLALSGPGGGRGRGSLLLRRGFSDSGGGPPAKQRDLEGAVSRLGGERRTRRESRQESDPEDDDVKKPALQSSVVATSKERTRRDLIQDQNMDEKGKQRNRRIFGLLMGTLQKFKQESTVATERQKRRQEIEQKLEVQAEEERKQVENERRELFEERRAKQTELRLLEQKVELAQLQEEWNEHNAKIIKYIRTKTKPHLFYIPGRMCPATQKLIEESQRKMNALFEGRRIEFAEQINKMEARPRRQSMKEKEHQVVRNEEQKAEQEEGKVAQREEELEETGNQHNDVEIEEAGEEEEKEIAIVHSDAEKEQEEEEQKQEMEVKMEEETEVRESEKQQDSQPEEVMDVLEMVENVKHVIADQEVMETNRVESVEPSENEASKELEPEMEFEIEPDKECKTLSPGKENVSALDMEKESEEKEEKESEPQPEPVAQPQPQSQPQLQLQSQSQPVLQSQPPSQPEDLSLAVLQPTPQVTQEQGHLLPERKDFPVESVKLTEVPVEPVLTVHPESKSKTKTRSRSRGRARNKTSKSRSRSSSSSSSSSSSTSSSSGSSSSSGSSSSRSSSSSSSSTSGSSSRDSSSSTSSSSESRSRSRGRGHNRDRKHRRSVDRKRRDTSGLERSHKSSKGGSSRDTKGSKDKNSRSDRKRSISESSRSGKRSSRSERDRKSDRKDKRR
UniProt Q9NR33: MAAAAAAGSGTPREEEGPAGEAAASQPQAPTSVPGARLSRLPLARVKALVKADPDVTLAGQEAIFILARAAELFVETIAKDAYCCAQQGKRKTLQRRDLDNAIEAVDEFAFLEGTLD
UniProt O95602, whole entry, looked up: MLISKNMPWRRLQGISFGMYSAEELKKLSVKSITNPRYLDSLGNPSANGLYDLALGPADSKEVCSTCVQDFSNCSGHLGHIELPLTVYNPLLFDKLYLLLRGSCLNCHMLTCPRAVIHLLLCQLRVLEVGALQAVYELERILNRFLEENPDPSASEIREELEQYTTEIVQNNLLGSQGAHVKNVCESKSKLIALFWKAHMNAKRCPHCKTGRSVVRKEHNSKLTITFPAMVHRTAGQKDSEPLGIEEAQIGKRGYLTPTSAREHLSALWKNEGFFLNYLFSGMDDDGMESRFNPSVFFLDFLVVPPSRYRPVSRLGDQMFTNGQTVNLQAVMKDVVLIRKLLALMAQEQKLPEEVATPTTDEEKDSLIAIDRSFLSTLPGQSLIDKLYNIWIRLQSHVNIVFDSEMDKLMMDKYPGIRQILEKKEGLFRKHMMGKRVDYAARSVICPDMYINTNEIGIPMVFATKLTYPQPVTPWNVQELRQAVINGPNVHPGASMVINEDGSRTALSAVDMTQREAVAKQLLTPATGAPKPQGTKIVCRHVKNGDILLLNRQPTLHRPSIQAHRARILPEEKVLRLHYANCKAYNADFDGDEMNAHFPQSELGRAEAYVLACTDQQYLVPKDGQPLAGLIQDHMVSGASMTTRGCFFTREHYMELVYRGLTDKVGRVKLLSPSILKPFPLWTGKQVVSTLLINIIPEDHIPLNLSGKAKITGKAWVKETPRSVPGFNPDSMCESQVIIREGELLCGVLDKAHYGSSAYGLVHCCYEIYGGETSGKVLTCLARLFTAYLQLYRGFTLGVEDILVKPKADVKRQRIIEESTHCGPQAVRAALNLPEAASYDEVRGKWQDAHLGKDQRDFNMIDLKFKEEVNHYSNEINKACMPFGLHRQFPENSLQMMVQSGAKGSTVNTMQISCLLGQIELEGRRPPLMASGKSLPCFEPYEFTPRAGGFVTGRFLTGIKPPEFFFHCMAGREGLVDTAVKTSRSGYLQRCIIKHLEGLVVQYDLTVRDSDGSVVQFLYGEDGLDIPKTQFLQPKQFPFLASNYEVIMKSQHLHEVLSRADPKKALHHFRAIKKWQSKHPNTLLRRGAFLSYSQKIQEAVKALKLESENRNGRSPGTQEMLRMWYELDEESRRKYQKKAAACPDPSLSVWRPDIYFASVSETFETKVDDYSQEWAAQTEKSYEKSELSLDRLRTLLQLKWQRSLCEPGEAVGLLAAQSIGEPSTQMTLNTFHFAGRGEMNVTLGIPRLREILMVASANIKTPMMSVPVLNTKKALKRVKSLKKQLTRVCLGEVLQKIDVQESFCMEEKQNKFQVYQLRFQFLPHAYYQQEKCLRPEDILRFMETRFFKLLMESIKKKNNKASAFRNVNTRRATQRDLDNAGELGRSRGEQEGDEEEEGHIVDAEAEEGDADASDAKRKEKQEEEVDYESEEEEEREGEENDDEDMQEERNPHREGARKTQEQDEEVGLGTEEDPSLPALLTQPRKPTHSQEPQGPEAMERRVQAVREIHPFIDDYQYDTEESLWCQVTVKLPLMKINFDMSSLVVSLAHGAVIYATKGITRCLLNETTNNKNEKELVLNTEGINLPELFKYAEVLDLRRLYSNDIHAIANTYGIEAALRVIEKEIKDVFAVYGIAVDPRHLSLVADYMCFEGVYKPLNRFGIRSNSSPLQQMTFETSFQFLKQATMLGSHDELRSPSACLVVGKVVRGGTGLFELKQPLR

Legend:
Assay in all cases: log2 fold change, soluble protein after heating vs DMSO (PISA); higher = thermal stabilisation; K562 cells, 10 uM, 30 min; active = over 0.2 and 3.5 SD of the protein, either way, in both replicates (recomputed)
erlotinib = compound: C#Cc1cccc(Nc2ncnc3cc(OCCOC)c(OCCOC)cc23)c1 [erlotinib]
Outline: (§1)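 K562 cells at 2×10^6 cells/mL were exposed to 10 μM compound for 30 min, then aliquots were heated for 3 min across 48°C-58°C, pooled, and extracted in PBS containing 0.5% NP-40 at 4°C. The supernatant after 21,000xg for 90 min was taken as soluble protein and measured by TMTpro 16plex LC-MS/MS with channel sums equalised. Thermal stability is reported relative to control samples, with values from duplicates. Fold changes are given on a log2 scale.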

[1] = compound: C/C(=N\NC(=O)C1=CC(=CC=C1)S(=O)(=O)N2CCOCC2)/C3=C(C=CC(=C3)Cl)O
Outline: as §1

[2] = compound: C1=CC(=C(C=C1Cl)C2=NC3=NC=CN=C3C(=N2)NC4=CC=NC=C4)F
Outline: as §1

[3] = compound: C1=CC(=CC=C1C2=NC3=C(N2)C=C(C=C3)C(=O)N)OC4=CC=C(C=C4)Cl
Outline: as §1

[4] = compound: C1=CC2=C(C=CC(=C2)/C=C\3/C(=O)NC(=NCC4=CC=CS4)S3)N=C1
Outline: as §1

[5] = compound: C1=CC2=NC=CN=C2C=C1/C=C/3\C(=O)NC(=O)S3
Outline: as §1

[6] = compound: C1=CC=C(C=C1)C2=NC(=C(N2)C3=CC=NC=C3)C4=CC(=C(C=C4)Cl)O
Outline: as §1

[7] = compound: C1=CC=C2C(=C1)C3=NNC4=CC=CC(=C43)C2=O
Outline: as §1

[8] = compound: C1CCN(C1)C(=O)NC2=CC=CC(=C2)NC3=NC=C(C(=N3)NCCC4=CN=CN4)Br
Outline: as §1

[9] = compound: C1CN(CCC1(CC2=CC=C(C=C2)Cl)N)C3=NC=NC4=C3C=CN4
Outline: as §1

IRAK-1-4 Inhibitor I = compound: C1COCCN1CCN2C3=CC=CC=C3N=C2NC(=O)C4=CC(=CC=C4)[N+](=O)[O-] [IRAK-1-4 Inhibitor I]
Outline: as §1

ibrutinib = compound: C=CC(=O)N1CCC[C@@H](n2nc(-c3ccc(Oc4ccccc4)cc3)c3c(N)ncnc32)C1 [ibrutinib]
Outline: as §1

[10] = compound: CC(=O)c1cnc2ccc(-c3cc(Cl)c(O)c(Cl)c3)nc2c1N[C@H]1CC[C@H](CN(C)C)CC1
Outline: as §1

ralimetinib = compound: CC(C)(C)Cn1c(N)nc2ccc(-c3[nH]c(C(C)(C)C)nc3-c3ccc(F)cc3)nc21 [ralimetinib]
Outline: as §1

[11] = compound: CC(C)(O)CC(=O)NCCn1ccc2ncnc(Nc3ccc(Oc4cccc(C(F)(F)F)c4)c(Cl)c3)c21
Outline: as §1

[12] = compound: CC(C)C1=C2N=C(C=C(N2N=C1)NCC3=CC=CC=C3)NCCCCCCN
Outline: as §1

[13] = compound: CC(C)C[C@@H](C=O)NC(=O)[C@H](CC(C)C)NC(=O)[C@H](CC(C)C)NC(=O)OCc1ccccc1
Outline: as §1

pinometostat = compound: CC(C)N(C[C@H]1O[C@@H](n2cnc3c(N)ncnc32)[C@H](O)[C@@H]1O)[C@H]1C[C@@H](CCc2nc3cc(C(C)(C)C)ccc3[nH]2)C1 [pinometostat]
Outline: as §1

[14] = compound: CC1=C(C2=C(C=C1)C(=O)C3=CC=CC=C3N2CCCN)C
Outline: as §1

[15] = compound: CC1=C(C(CC(=O)N1)C2=CC=C(C=C2)C(F)(F)F)C(=O)NC3=C(C=C4C(=C3)C=NN4)F
Outline: as §1

Measured: log2 fold change

POLR2E (UniProt P19388)
inactive: erlotinib 0.022 | [1] 0.021 | [2] 0.038 | [3] 0.057 | [4] -0.054 | [5] 0.007 | [6] 0.013 | [7] -0.02 | [8] -0.01 | [9] 0.011 | IRAK-1-4 Inhibitor I -0.106 | ibrutinib -0.012 | [10] 0.218 | ralimetinib -0.041 | [11] -0.061 | [12] 0.081 | [13] 0.065 | pinometostat 0.108 | [14] -0.014

PMM2 (UniProt O15305)
inactive: erlotinib 0.03 | [1] -0.034 | [2] 0.008 | [3] -0.02 | [4] 0.023 | [5] 0.003 | [6] -0.014 | [7] -0.019 | [8] -0.004 | [9] 0.05 | IRAK-1-4 Inhibitor I 0.025 | ibrutinib -0.025 | [10] 0.012 | ralimetinib -0.1 | [11] 0.009 | [12] 0.089 | [13] -0.032 | pinometostat -0.029 | [14] -0.015

POLR2C (UniProt P19387)
inactive: erlotinib 0.05 | [1] 0.037 | [2] -0.006 | [3] -0.051 | [4] -0.038 | [5] -0.053 | [6] 0.172 | [7] 0.001 | [8] 0.117 | [9] 0 | IRAK-1-4 Inhibitor I -0.041 | ibrutinib -0.025 | [10] 0.227 | ralimetinib 0.102 | [11] 0.003 | [12] 0.058 | [13] 0.042 | pinometostat 0.065 | [14] -0.025

PLG (UniProt P00747)
inactive: erlotinib -0.222 | [1] -0.006 | [3] 0.127 | [4] -0.015 | [5] -0.001 | [7] -0.104 | [8] 0.153 | [9] 0.194 | IRAK-1-4 Inhibitor I -0.009 | ibrutinib -0.003 | [10] 0.056 | [12] 0.121 | pinometostat -0.018 | [15] 0.111 | [14] -0.201

PLGRKT (UniProt Q9HBL7)
inactive: erlotinib 0.028 | [1] -0.048 | [2] 0.069 | [3] 0.036 | [4] 0.027 | [5] 0.082 | [7] -0.213 | [8] 0.108 | [9] 0.116 | ibrutinib 0.049 | [10] -0.088 | [11] 0.113 | [12] -0.012 | [15] 0.014 | [14] 0.079

POT1 (UniProt Q9NUX5)
inactive: erlotinib 0.107 | [2] 0.047 | [3] -0.215 | [5] 0.144 | [6] 0.11 | [8] -0.095 | [9] 0.032 | ibrutinib 0.127 | ralimetinib 0.069 | [11] 0.049 | [12] 0.066 | [13] -0.027 | [15] -0.07 | [14] 0.082

PMAIP1 (UniProt Q13794)
inactive: erlotinib -0.176 | [1] -0.06 | [2] 0.015 | [3] 0.017 | [4] -0.13 | [5] -0.105 | [6] -0.22 | [7] 0.067 | [8] -0.049 | [9] 0.17 | ibrutinib 0.114 | [10] -0.093 | ralimetinib 0.105 | [11] 0 | [12] -0.458 | [13] 0.245 | [15] -0.037 | [14] -0.053

PNN (UniProt Q9H307)
inactive: erlotinib 0.007 | [1] -0.001 | [2] 0.032 | [3] 0.024 | [4] 0.025 | [5] 0.085 | [6] -0.107 | [7] -0.11 | IRAK-1-4 Inhibitor I 0.051 | ibrutinib -0.047 | [10] -0.134 | ralimetinib 0.032 | [11] 0.004 | [12] -0.146 | [13] 0.145 | pinometostat 0.124

POLE4 (UniProt Q9NR33)
inactive: erlotinib 0.041 | [1] 0.024 | [2] 0.11 | [3] -0.12 | [4] -0.002 | [5] 0.085 | [7] 0.031 | [8] 0 | [9] 0.015 | IRAK-1-4 Inhibitor I 0.021 | ibrutinib 0.078 | [10] 0.034 | [11] -0.119 | [12] 0.092 | pinometostat -0.016 | [15] 0.039 | [14] 0.149

POLR2J (UniProt P52435)
inactive: erlotinib -0.048 | [1] 0.074 | [2] 0.049 | [3] 0.037 | [4] -0.047 | [5] 0.581 | [7] 0.015 | ibrutinib -0.26 | [10] 0.131 | [11] -0.159 | [12] 0.098 | [15] -0.112

POLR1A (UniProt O95602)
inactive: erlotinib -0.055 | [1] -0.236 | [2] 0.031 | [3] 0.058 | [4] 0.04 | [5] 0.005 | [6] 0.079 | [7] -0.096 | [8] 0 | [9] 0.125 | IRAK-1-4 Inhibitor I 0.06 | ibrutinib 0.06 | [10] 0.022 | ralimetinib 0.153 | [11] -0.022 | [12] -0.091 | [13] 0.005 | pinometostat 0.07 | [14] -0.14
